17 compounds from patent US20160322588A1, “Organic Transistor, Compound, Organic Semiconductor Material for Non-Light-Emitting Organic Semiconductor Device, Material for Organic Transistor, Coating Solution for Non-Light-Emitting Organic Semiconductor Device, and Organic Semiconductor Film for Non-Light-Emitting Organic Semiconductor Device” (FUJIFILM Corporation, priority 2014, published 2016) can be followed below.

Structures are written as SMILES.

Series [1] in a line: FET characteristics of organic transistor element of Example 2 (semiconductor active layer formed using compound alone, bottom gate/bottom contact). The following applies: source-drain −80 V; for Carrier mobility: compound alone cast from toluene, bottom gate/bottom contact, gate 20 V to −100 V, normal pressure/nitrogen; for Threshold voltage shift after repeated driving: compound alone, driven 100 times, gate +20 V to −100 V.

Series [2] is described as follows: FET characteristics of organic transistor element of Example 3 (semiconductor active layer formed using compound and binder PαMS together). The following applies: for Carrier mobility: compound 1 mg with 1 mg PαMS binder, cast from toluene, bottom gate/bottom contact; for Threshold voltage shift after repeated driving: compound with PαMS binder, driven 100 times.

The nature of series [3]: FET characteristics of organic transistor element of Example 4 (bottom gate/top contact, octyltrichlorosilane-treated SiO2). The note with it: for Carrier mobility: W=5 mm, L=80 μm, octyltrichlorosilane-treated SiO2 370 nm; for Threshold voltage shift after repeated driving: driven 100 times.

Consider `CCCCCCCCc1cc2c(ccc3c2sc2c4ccc5sccc5c4sc32)s1` [Compound 44], for which, in series [1], the Carrier mobility was 3.8 × 10^−3 cm^2/Vs and the “Threshold voltage shift after repeated driving” value (“Threshold voltage shift” for short) was “A (|Vafter−Vbefore|≦5 V)”.
For `CCCCCCCCCCCCc1cc2ccc3c(sc4c5ccc6cc(CCCCCCCCCCCC)sc6c5sc34)c2s1` [Compound 3], in series [1], the Carrier mobility stood at 0.25 cm^2/Vs and the “Threshold voltage shift” value is “A (|Vafter−Vbefore|≦5 V)”. Besides, in series [2], the Carrier mobility was determined as 0.32 cm^2/Vs and the “Threshold voltage shift” value is reported as “A (|Vafter−Vbefore|≦5 V)”.
Turning to `CCCCCCCCC#Cc1cc2c(ccc3c2sc2c4ccc5sc(C#CCCCCCCCC)cc5c4sc32)s1` [Compound 30], the Carrier mobility in series [3] was 2.4 × 10^−2 cm^2/Vs; in series [1], 1.5 × 10^−2 cm^2/Vs; in series [2] it was 2.0 × 10^−2 cm^2/Vs. Moreover, the “Threshold voltage shift” value in series [3], in series [1] and in series [2] was “A (|Vafter−Vbefore|≦5 V)” in each case.
Turning to `CCc1cc2cc3c(cc2s1)sc1c2cc4cc(CC)sc4cc2sc31` [compound 2, reference compound], in series [1], the Carrier mobility was 8.4 × 10^−5 cm^2/Vs and the “Threshold voltage shift” value is recorded as “B (5 V<|Vafter−Vbefore|≦10 V)”. In series [2], the Carrier mobility is given as 1.0 × 10^−4 cm^2/Vs and the “Threshold voltage shift” value is listed as “B (5 V<|Vafter−Vbefore|≦10 V)”.
With `CCCCCCCCC#Cc1cc2ccc3c(sc4c5ccc6cc(C#CCCCCCCCC)sc6c5sc34)c2s1` [Compound 29], the figures for the Carrier mobility in series [3], in series [1] and in series [2] were 3.3 × 10^−2 cm^2/Vs, 1.5 × 10^−2 cm^2/Vs and 2.5 × 10^−2 cm^2/Vs, respectively. Moreover, the “Threshold voltage shift” value in series [3], in series [1] and in series [2] was “A (|Vafter−Vbefore|≦5 V)” in each case.
With `CCCCCCCCc1cc2ccc3c(sc4c5ccc6cc(CCCCCCCC)sc6c5sc34)c2s1` [Compound 1], the Carrier mobility in series [3] worked out at 0.64 cm^2/Vs; in series [1] it was 0.49 cm^2/Vs; in series [2], 0.63 cm^2/Vs. In addition, the “Threshold voltage shift” value in series [3], in series [1] and in series [2] was “A (|Vafter−Vbefore|≦5 V)” throughout.
For the compound `CCCCCCCCOc1cc2c(ccc3c2sc2c4ccc5sc(OCCCCCCCC)cc5c4sc32)s1` [Compound 38], in series [1], the Carrier mobility is listed as 5.0 × 10^−3 cm^2/Vs and the “Threshold voltage shift” value was “A (|Vafter−Vbefore|≦5 V)”.
Take `CC(C)CCCC(C)CCc1cc2ccc3c(sc4c5ccc6cc(CCC(C)CCCC(C)C)sc6c5sc34)c2s1` (stereo not shown) [Compound 5]: the Carrier mobility is reported as 9.1 × 10^−2 cm^2/Vs in series [3], 7.9 × 10^−2 cm^2/Vs in series [1] and 8.6 × 10^−2 cm^2/Vs in series [2]. For the same compound, the “Threshold voltage shift” value in series [3], in series [1] and in series [2] was “A (|Vafter−Vbefore|≦5 V)” each time.
`CCCCCCCCc1cc2c(ccc3c2sc2c4ccc5sc(CCCCCCCC)cc5c4sc32)s1` [Compound 2]: the Carrier mobility in series [3] amounted to 0.44 cm^2/Vs; in series [1], 0.32 cm^2/Vs; in series [2], 0.42 cm^2/Vs. Moreover, the “Threshold voltage shift” value in series [3], in series [1] and in series [2] was “A (|Vafter−Vbefore|≦5 V)” throughout.
Consider `CCCCCCCCOc1cc2ccc3c(sc4c5ccc6cc(OCCCCCCCC)sc6c5sc34)c2s1` [Compound 37], for which, in series [1], the Carrier mobility is listed as 8.7 × 10^−3 cm^2/Vs and the “Threshold voltage shift” value is recorded as “A (|Vafter−Vbefore|≦5 V)”.
Regarding `CCCC(C)n1ccc2c3sc4c5ccc6c(ccn6C(C)CCC)c5sc4c3ccc21` (stereo not shown) [compound 3, reference compound], in series [1], the Carrier mobility was 1.2 × 10^−6 cm^2/Vs and the “Threshold voltage shift” value is listed as “C (|Vafter−Vbefore|>10V)”.
For the compound `CCCCCCCCc1cc2ccc3c(sc4c5ccc6ccsc6c5sc34)c2s1` [Compound 43], in series [1], the Carrier mobility is 4.0 × 10^−3 cm^2/Vs and the “Threshold voltage shift” value was “A (|Vafter−Vbefore|≦5 V)”.
With `CCCCCCCCCCCCc1cc2c(ccc3c2sc2c4ccc5sc(CCCCCCCCCCCC)cc5c4sc32)s1` [Compound 4], the results for the Carrier mobility in series [1] and in series [2] were 0.16 cm^2/Vs and 0.25 cm^2/Vs, respectively. The “Threshold voltage shift” value in series [1] and in series [2] was “A (|Vafter−Vbefore|≦5 V)” in each case.
On to `Cn1ccc2c3sc4c5ccc6c(ccn6C)c5sc4c3ccc21` [compound 1, reference compound], for which the results for the Carrier mobility in series [3], in series [1] and in series [2] were 4.8 × 10^−5 cm^2/Vs, 4.4 × 10^−4 cm^2/Vs and 6.3 × 10^−4 cm^2/Vs, respectively. In addition, the “Threshold voltage shift” value in series [3], in series [1] and in series [2] was “C (|Vafter−Vbefore|>10V)” in each case.
Consider `CCCCCCCCCCCCCCc1cc2sccc2c2sc3c(sc4c5ccsc5cc(CCCCCCCCCCCCCC)c43)c12` [Compound 40], for which, in series [1], the Carrier mobility was 4.2 × 10^−3 cm^2/Vs and the “Threshold voltage shift” value was “A (|Vafter−Vbefore|≦5 V)”.
For `CCCCCCCCCCCCCCc1cc2ccsc2c2sc3c(sc4c5sccc5cc(CCCCCCCCCCCCCC)c43)c12` [Compound 39] the same measures were 4.4 × 10^−3 cm^2/Vs and “A (|Vafter−Vbefore|≦5 V)”.
For `c1cc2cc3sc4c5cc6sccc6cc5sc4c3cc2s1` [compound 4, reference compound], in that order: 4.8 × 10^−5 cm^2/Vs and “B (5 V<|Vafter−Vbefore|≦10 V)”.
